These results are taken from PubChem BioAssay AID1487 (National Center for Advancing Translational Sciences (NCATS), 2009).

This test can be described thus: qHTS Assay for Modulators of Lamin A Splicing. As to conditions: HeLa LMNA splicing GFP/RFP minigene ratio, 48 h. Summed up:
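Read-out is the ratio of GFP to DsRed2 object intensity, acquired by 488 nm laser-scanning cytometry on HeLa lamin A-EGFP minigene reporter cells. Compound incubation 48 hrs at 37 °C in Opti-MEM with 2% FBS; DMSO 0.5% final.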

Setting [1] is: measured here: GFP splicing reporter channel.
The mark [2] stands for this setting: measured here: RFP viability control channel.

Where “and” joins values, the source holds several entries; their conditions need not be identical. Equal entries are not always repeated. The list shows a part of the results. Shown are side measurements of this screen, not its main read-out; they come without a call. Compounds called inactive in the main read-out are mostly missing here. The note in brackets gives the kind of curve behind each potency; many fits are weak.

As to `COc1ccccc1NC(=O)c1c(NCc2ccc(C)o2)sc2c1CCC(C)C2` (stereo not drawn), the AC50 under setting [1] is 25.1 µM [falling, partial curve, poor fit].

For `CCOC(=O)c1c(C)n(CC(O)c2ccccc2)c2ccc(O)cc12` (stereo not drawn), under setting [2], the half-maximal activity concentration (AC50) is 10 µM [rising, partial curve].

`Cc1onc(-c2ccccc2)c1C(=O)N/N=C/c1cc2c(cc1Cl)OCO2`: the AC50 is 15.8 µM [rising, partial curve, poor fit] under setting [1] and 35.5 µM [rising, single point] under setting [2].

Take `N#CCC(=O)N/N=C/c1ccc(SCC(=O)Nc2ccccc2)o1`: the AC50 is 0.00398 µM [rising, full curve, poor fit] under setting [1] and 20 µM [rising, partial curve, poor fit] under setting [2].

Regarding `COc1ccc(N2CCN(C3CC(=O)N(C)C3=O)CC2)cc1` (stereo not drawn), the half-maximal activity concentration (AC50) reads like this: under setting [1], 35.5 µM [rising, single point]; under setting [2], 35.5 µM [rising, single point].

Regarding `CCCC(=O)C1=C(O)C(C(=O)OC)C(C)(C)CC1=Nc1cccc2ccccc12` (stereo not drawn), the AC50 under setting [2] was 35.5 µM [rising, single point].

Consider `CC(C)COc1ccc(S(=O)(=O)n2cc(F)c(=O)[nH]c2=O)cc1`, for which the AC50 under setting [1] is 1.78 µM [falling, partial curve, poor fit].

As for `O=C(NNc1ccc(Cl)cc1)c1cccs1`, the AC50 under setting [1] was 0.01 µM [rising, full curve, poor fit].

As to `CCC(Sc1nnnn1-c1ccccc1)C(=O)Nc1nc2ccccc2s1` (stereo not drawn), the half-maximal activity concentration (AC50) under setting [2] was 35.5 µM [rising, single point].

Turning to `CSc1nsc(/C=C/Nc2ccc(F)cc2F)c1C#N`, the half-maximal activity concentration (AC50) under setting [1] was 39.8 µM [falling, partial curve, poor fit].

As for `COc1ccc(S(=O)(=O)c2c(Nc3ccc(F)cc3)sc(C(=O)c3ccc4c(c3)OCO4)c2N)cc1`, the concentration at half-maximal activity (AC50) is 10 µM [rising, partial curve, poor fit] under setting [1] and 8.91 µM [rising, partial curve, poor fit] under setting [2].

As for `CN(NS(=O)(=O)c1ccc(F)cc1)c1ncc(C(F)(F)F)cc1Cl`, under setting [1], the concentration at half-maximal activity (AC50) is 0.0251 µM [rising, full curve].

Consider `Cn1cccc1/C=C(/C#N)C(N)=S`, for which the half-maximal activity concentration (AC50) reads like this: under setting [1], 0.251 µM [rising, full curve, poor fit]; under setting [2], 0.251 µM [rising, full curve].

For the molecule `C[N+]1(CCCCC[N+]2(C)CCCC2)CCCC1`, the concentration at half-maximal activity (AC50) under setting [1] is 14.1 µM [falling, single point] and 6.31 µM [falling, partial curve, poor fit].

As for `CC(C)C(=O)NC(=S)Nc1ccccn1`, the AC50 under setting [2] is 7.94 µM [rising, partial curve].

On to `O=C(Nc1ccc(F)cc1F)N1CCCN(c2ccc([N+](=O)[O-])cn2)CC1`, for which, under setting [2], the AC50 was 3.55 µM [falling, partial curve, poor fit].

On to `CC(C)(O)C1Cc2cc(/C=C/C(=O)O)c(O)cc2O1` (stereo not drawn), for which the concentration at half-maximal activity (AC50) under setting [1] was 1.41 µM [rising, full curve, poor fit].

Regarding `COCCn1nnnc1C(c1ccccc1Cl)N1CCN(c2ccccc2OC)CC1` (stereo not drawn), the AC50 under setting [2] is 14.1 µM [rising, partial curve].

Take `O=C(/C=C/c1ccc(Cl)cc1Cl)N(Cc1ccc(Cl)cc1)C1CCS(=O)(=O)C1` (stereo not drawn): the AC50 under setting [2] was 12.6 µM [rising, single point].

Regarding `CN1CCc2c(c3ccccc3n2Cc2ccccc2)C1`, the AC50 under setting [2] was 0.355 µM [rising, full curve, poor fit].

For the molecule `CCc1ccc(S(=O)(=O)Nc2cccc(-c3ccc(OC)nn3)c2)s1`, the half-maximal activity concentration (AC50) under setting [1] was 3.98 µM [falling, partial curve, poor fit].

In the case of `Fc1ccc(C(c2ccc(F)cc2)N2CCN(C/C=C/c3ccccc3)CC2)cc1`, the half-maximal activity concentration (AC50) is 3.55 nM [falling, full curve, poor fit] and 17.8 µM [falling, single point] under setting [1]; 3.16 nM [falling, full curve, poor fit] and 22.4 µM [falling, partial curve] and 22.4 µM [rising, single point] under setting [2].

In the case of `COc1cc(Cl)c(S(=O)(=O)NCc2cccnc2)cc1Cl`, the AC50 under setting [1] is 31.6 µM [rising, single point].

`O=[N+]([O-])c1ccc(-c2ccc(S(=O)(=O)NCCN3CCCC3)cc2)cc1`: the half-maximal activity concentration (AC50) under setting [2] was 35.5 µM [rising, single point].

In the case of `COc1ccc(-c2nc(-c3ccc(NC(=O)c4ccncc4)cc3)no2)cc1OC`, the AC50 is 22.4 µM [rising, single point] under setting [1] and 22.4 µM [rising, single point] under setting [2].

Turning to `O=C(c1cnn2c(C(F)(F)F)cc(-c3ccccc3)nc12)N1CCCCC1c1cccnc1` (stereo not drawn), the AC50 under setting [1] is 35.5 µM [falling, single point] and the AC50 under setting [2] was 35.5 µM [falling, single point].

For the molecule `Cc1ccccc1Nc1nnc(SCC(=O)NCc2ccco2)s1`, the AC50 under setting [1] is 0.0631 µM [rising, full curve, poor fit].

Take `O=C(Nc1ccc(Cl)c(Cl)c1)c1cccc(S(=O)(=O)NCc2cccnc2)c1`: under setting [2], the concentration at half-maximal activity (AC50) was 7.08 µM [rising, full curve].

`Cc1ccc(OCCN2CCN(CC(O)Cn3c4ccccc4c4ccccc43)CC2)cc1` (stereo not drawn): the AC50 runs as follows: under setting [1], 35.5 µM [falling, single point]; under setting [2], 22.4 µM [falling, single point].

On to `CC(C)c1nc2oc3c(=O)[nH]cnc3c2c2c1CCC2`, for which the concentration at half-maximal activity (AC50) is, setting by setting: under setting [1], 11.2 µM [falling, partial curve]; under setting [2], 35.5 µM [falling, single point].

For `CCN=C(Nc1ccc2c(c1)OCO2)SC1CC(=O)N(c2ccccc2F)C1=O` (stereo not drawn), the AC50 under setting [2] was 12.6 µM [rising, partial curve].

Take `O=c1cc(N2CCCCC2)c(-c2ccccc2)nn1Cc1ccccc1Cl`: the concentration at half-maximal activity (AC50) is, setting by setting: under setting [1], 20 µM [falling, partial curve, poor fit]; under setting [2], 12.6 µM [falling, partial curve].

`Cc1nn(C)c(Oc2ccccc2)c1CCNS(=O)(=O)c1ccc(Cl)cc1`: under setting [2], the half-maximal activity concentration (AC50) is 35.5 µM [rising, single point].

With `Clc1ccc(-n2ncc3c(NCC4CCCO4)ncnc32)cc1` (stereo not drawn), the concentration at half-maximal activity (AC50) under setting [2] was 35.5 µM [rising, single point].

As to `CCOC(=O)c1c(C)c(C)n(Cc2ccc(OC)c(OC)c2)c1C`, the AC50 is 35.5 µM [rising, single point] under setting [1] and 20 µM [rising, partial curve] under setting [2].

In the case of `O=C(NCCc1c[nH]c2ccccc12)C(=O)NCC1OCCCN1S(=O)(=O)c1cc(F)ccc1F` (stereo not drawn), the AC50 under setting [1] was 25.1 µM [falling, single point].

Consider `COc1ccc(/C=N/N=C2/NC(=O)C(CC(=O)O)S2)cc1OS(=O)(=O)c1ccccc1` (stereo not drawn), for which the AC50 under setting [1] was 0.158 µM [falling, full curve, poor fit].

With `CCOC(=O)CC(=O)Nc1nnc(C(C)C)s1`, the AC50 under setting [2] is 5.62 µM [falling, partial curve].

As to `O=C1C=C(NCCOC23CC4CC(CC(C4)C2)C3)C2(CCCCC2)O1`, under setting [2], the half-maximal activity concentration (AC50) was 10 µM [falling, partial curve].

For the molecule `Cc1ccc(NC(=O)COC(=O)c2cccnc2)cc1`, under setting [1], the AC50 is 0.0282 µM [rising, full curve].

Consider `N#C/C(=C\c1ccc(N2CCCCC2)o1)C(=O)Nc1cccc(Br)c1`, for which the AC50 is, setting by setting: under setting [1], 0.00708 µM [falling, full curve, poor fit]; under setting [2], 3.98 µM [falling, full curve].

Consider `Cc1ccc(C)n1-c1ccc2c(c1)COC2=O`, for which, under setting [2], the AC50 was 35.5 µM [falling, single point].

`O=C1CCCc2nc(N3CCN(C(c4ccccc4)c4ccccc4)CC3)ncc21`: the half-maximal activity concentration (AC50) by setting is: under setting [1], 25.1 µM [rising, single point]; under setting [2], 17.8 µM [rising, partial curve].

For `Cc1cc(C(=O)CN2C(=O)NC3(CCCc4sccc43)C2=O)c(C)n1-c1ccccc1` (stereo not drawn), the AC50 is 14.1 µM [rising, single point] under setting [1] and 15.8 µM [rising, single point] under setting [2].

`CC(=O)NC1=NC(=O)/C(=C/c2cn(C(C)=O)nc2-c2ccccc2)S1`: the AC50 under setting [1] was 35.5 µM [falling, single point].

Turning to `CCc1ccccc1NC(=O)Cn1nnc(C(=O)Nc2ccc(OC)c(OC)c2)c1N`, the AC50 runs as follows: under setting [1], 1.26 µM [falling, partial curve, poor fit]; under setting [2], 2 µM [falling, partial curve].

Turning to `CCOC(=O)CC(C)(C)/C(C)=N/Nc1ccc([N+](=O)[O-])cc1[N+](=O)[O-]`, the concentration at half-maximal activity (AC50) under setting [2] is 31.6 µM [rising, single point].

For `CCOC(=O)c1c(NC(=O)c2nn(C)cc2[N+](=O)[O-])sc(C)c1C`, the AC50 under setting [2] was 35.5 µM [falling, single point].

Turning to `COc1ccccc1C(=O)Nc1onc(C)c1C#N`, the half-maximal activity concentration (AC50) under setting [2] was 0.0282 µM [falling, full curve, poor fit].

In the case of `O=S(=O)(c1ccccc1)N1CCN=C1SCc1ccc(Cl)c(Cl)c1`, the AC50 is 22.4 µM [rising, single point] under setting [1] and 14.1 µM [rising, partial curve] under setting [2].

With `CC(C)Cn1c(Br)nc2c1c(=O)n(CCC#N)c(=O)n2C`, the AC50 under setting [2] was 35.5 µM [rising, single point].

For the molecule `C[C@@H](C(=O)NCc1ccccc1)[C@@H]1C[C@@]1(C)[C@@H](NC(=O)OCc1ccccc1)c1ccccc1`, the AC50 under setting [2] is 12.6 µM [rising, partial curve, poor fit].

Regarding `Cc1ccccc1NC(=O)c1ccc(F)c(S(=O)(=O)N2CCc3ccccc3C2)c1`, the concentration at half-maximal activity (AC50) under setting [1] was 15.8 µM [rising, partial curve].

`Cc1cc(C)c(S(=O)(=O)N2CCC(N3CCN(Cc4ccc(F)cc4)C(=O)C3=O)CC2)c(C)c1`: the AC50 under setting [2] was 35.5 µM [falling, partial curve, poor fit].

Consider `Cc1ccc(NC(=O)CCNS(=O)(=O)c2ccc3c(c2)CCN3C(=O)C2CC2)c(Cl)c1`, for which the AC50 is 0.141 µM [rising, full curve, poor fit] under setting [1] and 0.141 µM [rising, full curve, poor fit] under setting [2].
